These results are taken from publication doi:10.1101/2021.12.29.474442.

By UniProt entry, the sequences of proteins in these tests, tags left out. Where a name states a change or a piece, a line headed by the entry shows the natural chain unless it says otherwise. Residues count along the entry.
UniProt O43303, 635-717: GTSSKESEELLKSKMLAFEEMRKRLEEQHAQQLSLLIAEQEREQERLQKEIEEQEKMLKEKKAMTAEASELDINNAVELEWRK

Substitutions are numbered along the chain they refer to. In names and notes the source's numbering stands. Results are given in words; binding and its absence hold for the method and conditions named. For some of these results: In cells and extracts the contact can be indirect. Some results given as binding are weak or reduced against the parent protein; the word gives no strength. For some of these results: Sequences can lack the tags named with a protein.

The target in assay [1] is T1, BioGFP-CPAP 89-196 (human) (UniProt Q9HC77).
T1 sequence (chain, biotin on the Bio tag (BirA co-expressed)): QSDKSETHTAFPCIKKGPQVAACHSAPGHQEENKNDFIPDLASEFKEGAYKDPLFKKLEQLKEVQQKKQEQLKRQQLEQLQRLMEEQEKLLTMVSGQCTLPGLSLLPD
Put plainly: pull-down.

Assay [2] deals with CP110-CC2 R656A/L659A (human) (UniProt O43303). The assay can be described thus: SEC. On the technique in general: In gel filtration, larger molecules generally elute earlier.
Assay [3] has as its target CPAP-CC1 (residues 89-196) (human) (UniProt Q9HC77). Put plainly: SEC-MALS.
For assay [4] the target is unchanged. Put plainly: SEC.
The target of assay [5] is CP110-CC2 (residues 635-717) (human) (UniProt O43303). The assay can be described thus: SEC-MALS.
Assay [6] addresses CPAP-CC1 L149A/K150A (human) (UniProt Q9HC77). Put plainly: SEC-MALS.

In the case of “GFP-CP110 581-991 (prey) (from UniProt O43303-2 581-991) (domain or fragment)”, the binding result in assay [1] was “binds”. On to “CP110-CC2 R656A/L659A (from UniProt O43303-2 635-717) (domain or fragment)”, for which, in assay [2], the binding entry is reported as “no binding”.

B1: CPAP-CC1 (residues 89-196) (domain or fragment, UniProt Q9HC77 89-196)
chain: T1 sequence (chain, biotin on the Bio tag (BirA co-expressed))
For B1, the binding entry in assay [3] is on record as “no binding (tested: ∼ 7 mg/ml loaded)”; in assay [2], “no binding”; in assay [4], “no binding”.

B2: CPAP-CC1 L149A/K150A (domain or fragment, UniProt Q9HC77 89-196)
chain: T1 sequence (chain, biotin on the Bio tag (BirA co-expressed)) with L61A, K62A
In the case of B2, the binding result in assay [5] and in assay [6] was “no binding (tested: ∼ 7 mg/ml loaded)” in each case.
